Data on 54 sequences can be found in publication PMC7819943, “Rice protein-binding microarrays: a tool to detect cis-acting elements near promoter regions in rice”.

The other results are listed elsewhere or left out.

For this assay, the target named is T1, OsSMF1 (Oryza sativa, UniProt Q6ZLB0 1-436).
T1 sequence: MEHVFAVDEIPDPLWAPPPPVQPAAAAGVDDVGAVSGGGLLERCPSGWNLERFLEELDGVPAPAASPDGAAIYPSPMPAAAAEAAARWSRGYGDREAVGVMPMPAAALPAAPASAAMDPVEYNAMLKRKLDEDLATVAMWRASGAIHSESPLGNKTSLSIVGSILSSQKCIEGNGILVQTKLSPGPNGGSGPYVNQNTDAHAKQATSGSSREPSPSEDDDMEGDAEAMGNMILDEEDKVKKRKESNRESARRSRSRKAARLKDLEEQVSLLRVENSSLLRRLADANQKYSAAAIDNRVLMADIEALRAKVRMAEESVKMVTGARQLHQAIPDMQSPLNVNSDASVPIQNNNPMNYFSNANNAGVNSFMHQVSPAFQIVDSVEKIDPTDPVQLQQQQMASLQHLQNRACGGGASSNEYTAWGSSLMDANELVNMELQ
Briefly: protein-binding microarray (RPBM); PBS, 2% BSA, 51.3 ng/ul salmon testes DNA, 50 uM zinc acetate, 200 nM TF, 25 C, 1 h; high values mean tight binding. The settings on record: protein: recombinant; tags: N-terminal polyhistidine and DsRed monomer fusion (pET32a); chain copies: 2; label: CyDye5-dUTP incorporated in the synthesized complementary strand; 3' TTTTT single-stranded linker to array surface; dsDNA, one strand shown. A digest of the protocol: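 Using Ni–NTA, transcription factors fused N-terminally to polyhistidine and DsRed were purified after expression in E. coli BL21-CodonPlus. These were incubated at 200 nM with a blocked, double-stranded custom Agilent array for 1 h at 25 °C in a buffer containing 50 µM zinc acetate, and the array was washed. The binding signal is per-feature fluorescence intensity (arbitrary units) on an Axon 4000B scanner.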
For the sequence “TAAATAAATCTGATACCTCAAATAAATAAGTCAAACCAGTCGGAGTCACCTAGTGCAG”, the binding signal was 4110 fluorescence intensity (a.u.).
For “TTCATCAGATGAAGCTGATGGCGTCCTCTAGCTGACAGGTCGGAGTCACCTAGTGCAG”, the binding signal was 3330 fluorescence intensity (a.u.).
With “GCTCCTGTCTGATTCTGTTACATGTCTTGCTTGGCCAGAGCGGAGTCACCTAGTGCAG”, the binding signal was 3440 fluorescence intensity (a.u.).
“GCGGGGCCGAGCGGCTGCGTGGCAGGGCAGCGGGGCCGGGCGGAGTCACCTAGTGCAG”: the binding signal was 3330 fluorescence intensity (a.u.).
In the case of “TATCAAAGCAGGCAGAGGTGTGCTACGTCACTGTACTTGTCGGAGTCACCTAGTGCAG” it was 4960 fluorescence intensity (a.u.); in that of “GGAATTAGCTTGCATCGCTGTTGTCGTCGTGGTCTTCTCTCGGAGTCACCTAGTGCAG”, 3620 fluorescence intensity (a.u.).
Turning to “GGCGCCACGACGGCCGACCTCTTCGCCATGGCCACCGGTGCGGAGTCACCTAGTGCAG”, the binding signal is 3680 fluorescence intensity (a.u.).
“CCAAGGCCCGGTACTTTCCTAGCCAGCTGGCAGCCTCCAACGGAGTCACCTAGTGCAG”: the binding signal is 5390 fluorescence intensity (a.u.).
For “TCCTCTCCGTACGTCATCGCTGGTTCCTCTCCTCTCCCCACGGAGTCACCTAGTGCAG”, the binding signal is 16800 fluorescence intensity (a.u.).
Regarding “TATTCTTGCATCTGTTGATCATGGTGGAGCTGTGCATCTACGGAGTCACCTAGTGCAG”, the binding signal is 3360 fluorescence intensity (a.u.).
In the case of “CCATTCCTCCATCCTGCCGTTGCCACGTTCCCGTGTCGTTCGGAGTCACCTAGTGCAG” it was 4280 fluorescence intensity (a.u.); in that of “CTCTGTCTGCTGCCCGGGGCTCCTCCACGCCGGCGTCCTCCGGAGTCACCTAGTGCAG”, 3390 fluorescence intensity (a.u.); in that of “ATTCCGAGGTACTTTGGTTGTTTTAGATTAGTCATAAGCTCGGAGTCACCTAGTGCAG”, 3730 fluorescence intensity (a.u.).
Take “AGATCCGAGATGAATTCGTACCACAACTACGTACTGACCCCGGAGTCACCTAGTGCAG”: the binding signal was 4480 fluorescence intensity (a.u.).
The result for “AATAGCCGTTAGTGCCACGTGTCGCCTTCCCGTTGGACCGCGGAGTCACCTAGTGCAG” reads 28700 fluorescence intensity (a.u.); that for “GCAAATCACATTACCATGCAATCCCCGGCCCATAAGTCATCGGAGTCACCTAGTGCAG”, 3140 fluorescence intensity (a.u.).
Regarding “ACGCTGGGGCAGAAGGCAGGCAAAAGGCACACTCATTCGCCGGAGTCACCTAGTGCAG”, the binding signal is 33400 fluorescence intensity (a.u.).
With “CGCGTGATCGGCCGTCAGATCCACAGCTCCGGCATCATCCCGGAGTCACCTAGTGCAG”, the binding signal was 3840 fluorescence intensity (a.u.).
For the sequence “CAGCTACCTCAGCGCCAACCGGACTGGCGCTGAGGTGGGACGGAGTCACCTAGTGCAG”, the binding signal is 39200 fluorescence intensity (a.u.).
Take “TCTCTTGTTTGAGTGCTATACATGTGGTCACTTACTCACTCGGAGTCACCTAGTGCAG”: the binding signal is 3340 fluorescence intensity (a.u.).
As for “ATTTGTATGAATGCTAACGTCGGCATATGCATGCGCGCAACGGAGTCACCTAGTGCAG”, the binding signal was 4100 fluorescence intensity (a.u.).
In the case of “CTGAATATATGACGTACTTCTTTCTTACCACCTTTGCTTGCGGAGTCACCTAGTGCAG” it was 6420 fluorescence intensity (a.u.); in that of “GTAGAAGACCGGCGGAAAGTGTGAGGAGGGTGACAAGGGGCGGAGTCACCTAGTGCAG”, 3420 fluorescence intensity (a.u.).
In the case of “GTAGACAGGTTACATCCAGACCATCACCAGTCACTCAGCTCGGAGTCACCTAGTGCAG” it was 3570 fluorescence intensity (a.u.); in that of “TAGTATATTCCAGTGGATTTATCGCACACAAGCGTAGGAACGGAGTCACCTAGTGCAG”, 3560 fluorescence intensity (a.u.); in that of “GCTATCTCTCATGTTTACGTCAAGTTTAATTAACATCCCTCGGAGTCACCTAGTGCAG”, 3730 fluorescence intensity (a.u.).
With “GGAGTACAAGCGACACGTACCCACGTAACATCCATTAAATCGGAGTCACCTAGTGCAG”, the binding signal was 4300 fluorescence intensity (a.u.).
For “CAGCCGGGCCCACGTGTCAGTGAGTGCGTGACGCGTCAGCCGGAGTCACCTAGTGCAG”, the binding signal is 15200 fluorescence intensity (a.u.).
Turning to “ACGCGCGCGCGCGCCAGGTTGATCACCTTGATCCTGCGGCCGGAGTCACCTAGTGCAG”, the binding signal is 3250 fluorescence intensity (a.u.).
For “AAACTGAAGGGTATTTTCACAAAATTTCCTTTTCTTTCTCCGGAGTCACCTAGTGCAG”, the binding signal was 6620 fluorescence intensity (a.u.).
For the sequence “ACGCATCCACGCCGTCGCCGTTTTCGCGTCACCCACGAAACGGAGTCACCTAGTGCAG”, the binding signal is 3650 fluorescence intensity (a.u.).
In the case of “CCATGTAGGCATCTCCATCACTTGCCTGACACACCAAGCGCGGAGTCACCTAGTGCAG”, the binding signal is 3300 fluorescence intensity (a.u.).
Turning to “TATTATTATACTGAATAGGGCAACAGGCCCATGGATGAGCCGGAGTCACCTAGTGCAG”, the binding signal is 3220 fluorescence intensity (a.u.).
On to “GAGCTTGGCCTTGGCCACCGCCAGATGACGGAGGCAGCGCCGGAGTCACCTAGTGCAG”, for which the binding signal was 4350 fluorescence intensity (a.u.).
As to “GCCTGGCCCAAATTGCGGGAGCTTACGCATGTTGCCCAGGCGGAGTCACCTAGTGCAG”, the binding signal is 3550 fluorescence intensity (a.u.).
As for “CTAAAACCACATATAAGGAGTGTCCTGTAGCAAAATTTCCCGGAGTCACCTAGTGCAG”, the binding signal is 4200 fluorescence intensity (a.u.).
Consider “GGCGGCGGCGGAGAAGGAGAGGCCGCCCGCCGCGTGGCGCCGGAGTCACCTAGTGCAG”, for which the binding signal was 6420 fluorescence intensity (a.u.).
The result for “GATTCGGTCGGGTACGCGACGTGACGCGGTCCGGCTGCACCGGAGTCACCTAGTGCAG” reads 5090 fluorescence intensity (a.u.).
The result for “GTTCACACAAATAATTGTTTGTGTTGGTATACTAAGGGCCCGGAGTCACCTAGTGCAG” reads 24300 fluorescence intensity (a.u.).
As to “TCCGGGTGACGAGGCCAAACCTGGGCCTCAACCCCATTTTCGGAGTCACCTAGTGCAG”, the binding signal was 3250 fluorescence intensity (a.u.).
For “CTAGCTCGTTACAAACAGTTGGTATCCCGACCATGCCACGCGGAGTCACCTAGTGCAG”, the binding signal is 3390 fluorescence intensity (a.u.).
Regarding “TATTGTTGTGACTTCCCTTGTCGCCAATGGCTTACTCATTCGGAGTCACCTAGTGCAG”, the binding signal was 3270 fluorescence intensity (a.u.).
The result for “TTGAAAAGAAAGTTTTCTATAAGGGACCGAAGCTTTCACGCGGAGTCACCTAGTGCAG” reads 21600 fluorescence intensity (a.u.); that for “GTGATCCGGAAGAAAATGATCTGACACATATATTAAATATCGGAGTCACCTAGTGCAG”, 3250 fluorescence intensity (a.u.); that for “GCAGCAGGTGGCGCCTCTAATTCCTCCTCCTCGCGCCCTACGGAGTCACCTAGTGCAG”, 3600 fluorescence intensity (a.u.).
For “AGATCAAATCAACTCCATGAATTATGAATCATCATTCATGCGGAGTCACCTAGTGCAG”, the binding signal is 3780 fluorescence intensity (a.u.).
On to “GGGCAACCATGTAGACAACATCGCGTGGTTGATTGGCGGCCGGAGTCACCTAGTGCAG”, for which the binding signal was 3150 fluorescence intensity (a.u.).
As for “CCTTTCTTCTTCCGCCTCTCCTCCATGGCGTGACCTGACTCGGAGTCACCTAGTGCAG”, the binding signal was 4320 fluorescence intensity (a.u.).
In the case of “TTCCGCCCACAGCCGCCGGAGCCACCTCCCGCTCCTCTCCCGGAGTCACCTAGTGCAG” it was 3800 fluorescence intensity (a.u.); in that of “GCGCGCGCGCACGGCGCCATCAATCGATTCTCACATCCATCGGAGTCACCTAGTGCAG”, 7720 fluorescence intensity (a.u.).
Turning to “TTACATCATATAATATATATGTGCCACGAGTGCCCTTGGTCGGAGTCACCTAGTGCAG”, the binding signal is 4240 fluorescence intensity (a.u.).
Consider “TTCCAACAATGTGCTCTCATCCAGCACGTCAGCTCAGGCGCGGAGTCACCTAGTGCAG”, for which the binding signal is 4700 fluorescence intensity (a.u.).
Consider “CTGTGGTGGGGCCAGGGGAGCTGATCGGGCTCGGACGGGACGGAGTCACCTAGTGCAG”, for which the binding signal was 3370 fluorescence intensity (a.u.).
Consider “TCTCTCTCATCCTTCCAATCGATCTCCTCGACCTGCTATGCGGAGTCACCTAGTGCAG”, for which the binding signal was 3440 fluorescence intensity (a.u.).
